Test results: the supplement of paper PMC10849652
The list shows a part of the results.

The chains behind the UniProt entries cited, without tags or fusion partners. Where a name states a change or a piece, a line headed by the entry shows the natural chain unless it says otherwise.
UniProt Q8N6T3: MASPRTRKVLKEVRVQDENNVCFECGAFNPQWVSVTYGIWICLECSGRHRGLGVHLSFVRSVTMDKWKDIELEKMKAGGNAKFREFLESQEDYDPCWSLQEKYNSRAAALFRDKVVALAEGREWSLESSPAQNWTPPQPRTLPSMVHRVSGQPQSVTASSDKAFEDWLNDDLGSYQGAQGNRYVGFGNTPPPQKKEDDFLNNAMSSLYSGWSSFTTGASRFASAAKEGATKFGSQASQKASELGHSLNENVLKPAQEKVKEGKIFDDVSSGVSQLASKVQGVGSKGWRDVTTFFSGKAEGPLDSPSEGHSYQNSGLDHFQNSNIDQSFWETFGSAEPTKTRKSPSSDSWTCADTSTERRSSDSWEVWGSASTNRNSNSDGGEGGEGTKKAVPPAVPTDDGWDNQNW
UniProt P98171: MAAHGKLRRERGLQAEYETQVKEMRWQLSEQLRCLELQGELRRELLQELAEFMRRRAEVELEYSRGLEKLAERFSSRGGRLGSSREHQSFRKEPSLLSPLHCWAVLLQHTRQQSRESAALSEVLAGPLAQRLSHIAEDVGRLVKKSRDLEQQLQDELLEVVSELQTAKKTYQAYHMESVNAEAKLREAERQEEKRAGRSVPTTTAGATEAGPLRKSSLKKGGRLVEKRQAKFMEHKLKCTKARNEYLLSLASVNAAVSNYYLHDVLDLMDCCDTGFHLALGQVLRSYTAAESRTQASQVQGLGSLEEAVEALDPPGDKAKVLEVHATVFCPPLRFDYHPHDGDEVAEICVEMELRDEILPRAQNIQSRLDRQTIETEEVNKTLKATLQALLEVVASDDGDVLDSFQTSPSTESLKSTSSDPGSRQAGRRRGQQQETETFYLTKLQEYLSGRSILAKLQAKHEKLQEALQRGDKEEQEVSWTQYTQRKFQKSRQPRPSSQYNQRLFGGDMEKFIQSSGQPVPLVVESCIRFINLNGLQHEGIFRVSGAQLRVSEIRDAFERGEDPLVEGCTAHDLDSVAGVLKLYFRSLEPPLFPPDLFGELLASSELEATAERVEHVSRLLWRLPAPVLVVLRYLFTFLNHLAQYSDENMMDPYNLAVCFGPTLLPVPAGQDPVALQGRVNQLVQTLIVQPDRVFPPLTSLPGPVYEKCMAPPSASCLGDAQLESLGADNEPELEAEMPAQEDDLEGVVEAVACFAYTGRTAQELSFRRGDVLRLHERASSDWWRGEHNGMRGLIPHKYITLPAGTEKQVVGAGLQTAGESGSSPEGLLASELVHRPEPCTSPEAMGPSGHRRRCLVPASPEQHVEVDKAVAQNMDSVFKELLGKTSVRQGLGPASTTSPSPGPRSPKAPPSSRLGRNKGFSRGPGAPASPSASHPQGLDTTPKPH
UniProt Q9UJX6, whole entry, looked up: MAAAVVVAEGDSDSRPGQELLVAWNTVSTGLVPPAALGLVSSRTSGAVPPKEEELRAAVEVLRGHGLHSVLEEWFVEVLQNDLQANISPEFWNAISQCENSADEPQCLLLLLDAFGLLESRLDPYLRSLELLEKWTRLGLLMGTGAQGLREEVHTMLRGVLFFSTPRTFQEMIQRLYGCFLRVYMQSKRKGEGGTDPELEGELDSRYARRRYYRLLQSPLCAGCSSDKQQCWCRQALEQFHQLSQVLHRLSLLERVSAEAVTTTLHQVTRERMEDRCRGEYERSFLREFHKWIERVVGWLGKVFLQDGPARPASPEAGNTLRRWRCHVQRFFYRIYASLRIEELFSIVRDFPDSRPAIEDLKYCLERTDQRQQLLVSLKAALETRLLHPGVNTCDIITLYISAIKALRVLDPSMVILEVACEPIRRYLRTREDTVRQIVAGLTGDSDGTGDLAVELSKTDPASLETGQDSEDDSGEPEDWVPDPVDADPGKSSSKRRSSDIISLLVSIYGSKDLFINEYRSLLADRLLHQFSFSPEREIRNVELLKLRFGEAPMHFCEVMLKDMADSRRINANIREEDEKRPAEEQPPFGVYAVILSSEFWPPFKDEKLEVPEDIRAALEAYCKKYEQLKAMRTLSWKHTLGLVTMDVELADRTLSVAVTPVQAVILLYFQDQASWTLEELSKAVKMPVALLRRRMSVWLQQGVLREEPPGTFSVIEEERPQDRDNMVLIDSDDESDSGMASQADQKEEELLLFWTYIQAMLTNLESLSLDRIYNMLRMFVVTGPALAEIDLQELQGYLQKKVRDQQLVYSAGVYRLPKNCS
UniProt Q9UKG1: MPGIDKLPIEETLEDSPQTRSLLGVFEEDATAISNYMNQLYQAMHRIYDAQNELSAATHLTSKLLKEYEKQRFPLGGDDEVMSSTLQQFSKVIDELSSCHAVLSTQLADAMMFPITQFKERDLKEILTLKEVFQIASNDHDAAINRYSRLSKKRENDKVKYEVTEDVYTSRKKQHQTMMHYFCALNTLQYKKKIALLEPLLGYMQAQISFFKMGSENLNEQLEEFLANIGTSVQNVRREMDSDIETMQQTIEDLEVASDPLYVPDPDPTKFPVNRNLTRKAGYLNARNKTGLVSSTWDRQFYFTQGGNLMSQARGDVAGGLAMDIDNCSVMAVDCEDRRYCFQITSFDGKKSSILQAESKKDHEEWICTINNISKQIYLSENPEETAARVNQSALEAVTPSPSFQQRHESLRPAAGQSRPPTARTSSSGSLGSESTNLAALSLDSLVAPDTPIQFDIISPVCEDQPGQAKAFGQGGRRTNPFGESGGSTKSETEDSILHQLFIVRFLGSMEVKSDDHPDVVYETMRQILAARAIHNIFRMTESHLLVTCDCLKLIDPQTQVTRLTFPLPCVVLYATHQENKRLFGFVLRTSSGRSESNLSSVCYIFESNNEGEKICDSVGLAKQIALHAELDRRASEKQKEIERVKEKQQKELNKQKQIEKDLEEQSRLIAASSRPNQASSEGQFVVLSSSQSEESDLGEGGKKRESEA
UniProt P02749: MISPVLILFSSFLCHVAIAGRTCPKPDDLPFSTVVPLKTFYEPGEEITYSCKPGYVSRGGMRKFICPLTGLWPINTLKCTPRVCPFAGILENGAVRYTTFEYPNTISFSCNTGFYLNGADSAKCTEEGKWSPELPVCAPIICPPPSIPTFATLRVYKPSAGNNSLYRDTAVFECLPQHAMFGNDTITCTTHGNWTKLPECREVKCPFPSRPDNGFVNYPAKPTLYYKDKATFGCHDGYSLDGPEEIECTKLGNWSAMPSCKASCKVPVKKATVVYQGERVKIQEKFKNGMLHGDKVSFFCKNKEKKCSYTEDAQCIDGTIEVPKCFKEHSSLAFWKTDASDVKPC
UniProt Q9H0R1: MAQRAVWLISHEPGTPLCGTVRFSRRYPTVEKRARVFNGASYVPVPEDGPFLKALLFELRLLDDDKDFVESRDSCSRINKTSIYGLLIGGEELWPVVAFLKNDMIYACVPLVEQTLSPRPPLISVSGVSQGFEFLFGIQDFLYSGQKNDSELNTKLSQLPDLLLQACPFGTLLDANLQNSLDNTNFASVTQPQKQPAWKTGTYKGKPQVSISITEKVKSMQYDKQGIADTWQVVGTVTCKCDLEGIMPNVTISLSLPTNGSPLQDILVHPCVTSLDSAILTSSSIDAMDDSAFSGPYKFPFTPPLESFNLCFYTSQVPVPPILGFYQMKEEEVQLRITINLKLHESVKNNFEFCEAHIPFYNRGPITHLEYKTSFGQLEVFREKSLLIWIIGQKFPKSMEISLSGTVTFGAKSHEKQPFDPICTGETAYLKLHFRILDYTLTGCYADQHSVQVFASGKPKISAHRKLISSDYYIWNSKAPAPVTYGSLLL
UniProt A6QL64: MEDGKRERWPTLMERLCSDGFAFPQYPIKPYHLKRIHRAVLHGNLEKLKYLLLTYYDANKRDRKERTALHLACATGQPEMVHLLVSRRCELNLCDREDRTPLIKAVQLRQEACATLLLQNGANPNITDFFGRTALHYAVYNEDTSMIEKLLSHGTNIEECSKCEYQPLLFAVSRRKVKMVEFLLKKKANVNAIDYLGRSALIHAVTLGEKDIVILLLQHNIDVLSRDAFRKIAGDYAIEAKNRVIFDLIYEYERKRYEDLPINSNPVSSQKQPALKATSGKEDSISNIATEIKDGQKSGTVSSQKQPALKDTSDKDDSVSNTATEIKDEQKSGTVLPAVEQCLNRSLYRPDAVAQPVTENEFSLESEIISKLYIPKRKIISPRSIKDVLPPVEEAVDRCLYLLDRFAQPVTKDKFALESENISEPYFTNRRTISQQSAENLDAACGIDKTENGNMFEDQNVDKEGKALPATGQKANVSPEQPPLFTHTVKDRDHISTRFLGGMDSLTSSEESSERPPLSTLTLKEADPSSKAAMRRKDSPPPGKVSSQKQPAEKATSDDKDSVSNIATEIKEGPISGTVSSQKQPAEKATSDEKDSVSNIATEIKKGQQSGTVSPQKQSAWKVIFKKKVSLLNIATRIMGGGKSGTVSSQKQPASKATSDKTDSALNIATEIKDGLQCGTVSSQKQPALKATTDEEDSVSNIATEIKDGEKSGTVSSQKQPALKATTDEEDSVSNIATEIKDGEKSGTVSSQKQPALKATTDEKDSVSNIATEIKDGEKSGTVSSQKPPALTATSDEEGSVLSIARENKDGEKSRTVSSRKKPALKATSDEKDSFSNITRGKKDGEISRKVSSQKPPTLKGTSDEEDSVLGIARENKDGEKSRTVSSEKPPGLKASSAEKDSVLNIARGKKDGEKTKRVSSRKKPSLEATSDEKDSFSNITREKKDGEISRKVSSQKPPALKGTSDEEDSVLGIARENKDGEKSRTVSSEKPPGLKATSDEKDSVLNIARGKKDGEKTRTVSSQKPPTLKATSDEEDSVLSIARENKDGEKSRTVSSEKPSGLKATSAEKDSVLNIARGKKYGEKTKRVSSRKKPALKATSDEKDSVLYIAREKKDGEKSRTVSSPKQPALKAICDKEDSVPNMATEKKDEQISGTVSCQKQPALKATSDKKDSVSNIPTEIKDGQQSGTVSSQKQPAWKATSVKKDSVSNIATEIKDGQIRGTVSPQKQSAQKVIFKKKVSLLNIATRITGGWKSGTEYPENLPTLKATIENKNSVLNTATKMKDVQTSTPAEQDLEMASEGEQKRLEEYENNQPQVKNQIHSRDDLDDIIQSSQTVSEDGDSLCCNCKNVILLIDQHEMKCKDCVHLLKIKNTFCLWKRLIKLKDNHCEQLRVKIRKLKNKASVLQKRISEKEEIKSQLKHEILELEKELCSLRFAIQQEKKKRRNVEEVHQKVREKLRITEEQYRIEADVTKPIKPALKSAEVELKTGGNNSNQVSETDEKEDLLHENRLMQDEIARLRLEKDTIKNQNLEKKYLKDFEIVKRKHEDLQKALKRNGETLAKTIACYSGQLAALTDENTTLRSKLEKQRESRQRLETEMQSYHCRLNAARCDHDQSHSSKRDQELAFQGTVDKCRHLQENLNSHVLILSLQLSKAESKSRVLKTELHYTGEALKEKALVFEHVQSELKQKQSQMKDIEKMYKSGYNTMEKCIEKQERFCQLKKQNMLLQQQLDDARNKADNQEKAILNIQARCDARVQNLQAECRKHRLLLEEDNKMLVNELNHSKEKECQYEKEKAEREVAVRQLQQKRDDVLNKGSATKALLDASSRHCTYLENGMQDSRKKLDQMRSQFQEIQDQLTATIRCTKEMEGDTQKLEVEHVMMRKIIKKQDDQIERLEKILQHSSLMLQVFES
UniProt Q96CW1: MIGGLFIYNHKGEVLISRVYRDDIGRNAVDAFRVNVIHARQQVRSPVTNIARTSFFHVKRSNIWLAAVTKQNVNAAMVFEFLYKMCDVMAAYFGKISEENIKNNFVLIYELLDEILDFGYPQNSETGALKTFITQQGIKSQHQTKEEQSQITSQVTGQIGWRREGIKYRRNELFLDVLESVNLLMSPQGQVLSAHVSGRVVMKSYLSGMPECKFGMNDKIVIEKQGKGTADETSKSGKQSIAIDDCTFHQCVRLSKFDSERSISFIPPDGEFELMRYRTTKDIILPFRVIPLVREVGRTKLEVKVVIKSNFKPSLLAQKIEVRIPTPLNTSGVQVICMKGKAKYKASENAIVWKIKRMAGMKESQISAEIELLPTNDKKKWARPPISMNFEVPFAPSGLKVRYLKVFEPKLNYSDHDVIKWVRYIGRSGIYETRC
UniProt Q8N6H7: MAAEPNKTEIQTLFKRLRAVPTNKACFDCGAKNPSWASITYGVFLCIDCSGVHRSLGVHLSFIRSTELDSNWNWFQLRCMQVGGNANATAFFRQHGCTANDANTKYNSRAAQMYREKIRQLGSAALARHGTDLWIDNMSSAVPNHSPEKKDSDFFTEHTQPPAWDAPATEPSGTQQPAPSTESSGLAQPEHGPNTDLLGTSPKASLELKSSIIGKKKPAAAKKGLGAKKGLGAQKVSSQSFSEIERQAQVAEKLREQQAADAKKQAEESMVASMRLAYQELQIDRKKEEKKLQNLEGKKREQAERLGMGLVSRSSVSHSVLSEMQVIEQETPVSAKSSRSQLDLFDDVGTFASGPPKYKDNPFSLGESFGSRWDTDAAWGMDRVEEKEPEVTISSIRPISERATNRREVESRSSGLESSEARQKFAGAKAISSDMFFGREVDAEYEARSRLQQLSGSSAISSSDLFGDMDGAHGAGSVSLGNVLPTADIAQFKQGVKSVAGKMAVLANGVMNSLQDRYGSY

How the values were obtained:
Test in all cases: log2 fold change, soluble protein after heating vs DMSO (PISA); higher = thermal stabilisation; K562 cells, 10 uM, 30 min; active = over 0.2 and 3.5 SD of the protein, either way, in both replicates (recomputed)
saracatinib = compound: CN1CCN(CCOc2cc(OC3CCOCC3)c3c(Nc4c(Cl)ccc5c4OCO5)ncnc3c2)CC1 [saracatinib]
In short: (§1)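 K562 cells at 2×10^6 cells/mL were exposed to 10 μM compound for 30 min, then aliquots were heated for 3 min across 48°C-58°C, pooled, and extracted in PBS containing 0.5% NP-40 at 4°C. The supernatant after 21,000xg for 90 min was taken as soluble protein and measured by TMTpro 16plex LC-MS/MS with channel sums equalised. Thermal stability is reported relative to control samples, with values from duplicates. Fold changes are given on a log2 scale.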

sotrastaurin = compound: CN1CCN(c2nc(C3=C(c4c[nH]c5ccccc45)C(=O)NC3=O)c3ccccc3n2)CC1 [sotrastaurin]
In short: as §1

Tubastatin A = compound: CN1CCc2c(c3ccccc3n2Cc2ccc(C(=O)NO)cc2)C1 [Tubastatin A]
In short: as §1

[1] = compound: CNC(=O)C1=CC=CC=C1NC2=NC(=NC=C2Cl)NC3=C(C=C(C=C3)N4CCOCC4)OC
In short: as §1

defactinib = compound: CNC(=O)c1ccc(Nc2ncc(C(F)(F)F)c(NCc3nccnc3N(C)S(C)(=O)=O)n2)cc1 [defactinib]
In short: as §1

rucaparib = compound: CNCc1ccc(-c2[nH]c3cc(F)cc4c3c2CCNC4=O)cc1 [rucaparib]
In short: as §1

[2] = compound: CNc1nc(-c2ccc3c(N)n[nH]c3c2)cc(N2C[C@@H](C(=O)NC3CCCCC3)CC[C@H]2C)n1
In short: as §1

encorafenib = compound: COC(=O)N[C@@H](C)CNc1nccc(-c2cn(C(C)C)nc2-c2cc(Cl)cc(NS(C)(=O)=O)c2F)n1 [encorafenib]
In short: as §1

[3] = compound: COC(=O)[C@H](CCSC)NC(=O)C1=C(C=C(C=C1)NC[C@H](CS)N)C2=CC=CC=C2
In short: as §1

[4] = compound: COC1=CC=C(C=C1)CN2C=CC3=C2C=C(C=C3)C(=O)NO
In short: as §1

filanesib = compound: CON(C)C(=O)N1N=C(c2cc(F)ccc2F)S[C@@]1(CCCN)c1ccccc1 [filanesib]
In short: as §1

zotarolimus = compound: CO[C@H]1C[C@@H]2CC[C@@H](C)[C@@](O)(O2)C(=O)C(=O)N2CCCC[C@H]2C(=O)O[C@H]([C@H](C)C[C@@H]2CC[C@H](n3cnnn3)[C@H](OC)C2)CC(=O)[C@H](C)/C=C(\C)[C@@H](O)[C@@H](OC)C(=O)[C@H](C)C[C@H](C)/C=C/C=C/C=C/1C [zotarolimus]
In short: as §1

idasanutlin = compound: COc1cc(C(=O)O)ccc1NC(=O)[C@@H]1N[C@@H](CC(C)(C)C)[C@](C#N)(c2ccc(Cl)cc2F)[C@H]1c1cccc(Cl)c1F [idasanutlin]
In short: as §1

alisertib = compound: COc1cc(Nc2ncc3c(n2)-c2ccc(Cl)cc2C(c2c(F)cccc2OC)=NC3)ccc1C(=O)O [alisertib]
In short: as §1

[5] = compound: COc1cc2nc(-c3cc(F)ccc3O)nc(N[C@@H]3CNC[C@H]3C(C)(C)O)c2cc1OC
In short: as §1

gefitinib = compound: COc1cc2ncnc(Nc3ccc(F)c(Cl)c3)c2cc1OCCCN1CCOCC1 [gefitinib]
In short: as §1

[6] = compound: COc1cccc2cc(-c3nc([C@H]4CC[C@H](C(=O)O)CC4)n4ncnc(N)c34)[nH]c12
In short: as §1

lapatinib = compound: CS(=O)(=O)CCNCc1ccc(-c2ccc3ncnc(Nc4ccc(OCc5cccc(F)c5)c(Cl)c4)c3c2)o1 [lapatinib]
In short: as §1

pictilisib = compound: CS(=O)(=O)N1CCN(Cc2cc3nc(-c4cccc5[nH]ncc45)nc(N4CCOCC4)c3s2)CC1 [pictilisib]
In short: as §1

alvocidib = compound: CN1CC[C@H](c2c(O)cc(O)c3c(=O)cc(-c4ccccc4Cl)oc23)[C@H](O)C1 [alvocidib]
In short: as §1

Target | log2 fold change (saracatinib) | log2 fold change (sotrastaurin) | log2 fold change (Tubastatin A) | log2 fold change [1] | log2 fold change (defactinib) | log2 fold change (rucaparib) | log2 fold change [2] | log2 fold change (encorafenib) | log2 fold change [3] | log2 fold change [4] | log2 fold change (filanesib) | log2 fold change (zotarolimus) | log2 fold change (idasanutlin) | log2 fold change (alisertib) | log2 fold change [5] | log2 fold change (gefitinib) | log2 fold change [6] | log2 fold change (lapatinib) | log2 fold change (pictilisib) | log2 fold change (alvocidib)
ARFGAP1 (UniProt Q8N6T3) | inactive: -0.021 | inactive: -0.086 | inactive: 0.034 | inactive: 0.068 | inactive: -0.158 | inactive: -0.048 | inactive: -0.087 | inactive: 0.068 | inactive: -0.044 | inactive: 0.03 | inactive: 0.034 | inactive: 0.047 | inactive: 0.028 | inactive: 0.047 | inactive: 0 | inactive: -0.022 | inactive: -0.015 | inactive: -0.038 | inactive: -0.007 | 
ARHGAP4 isoform 2 (UniProt P98171) | inactive: -0.094 | inactive: 0.115 | inactive: -0.172 | inactive: -0.096 | inactive: 0.22 | inactive: -0.062 | inactive: -0.139 | inactive: 0.047 | inactive: 0.097 |  | inactive: 0.027 | inactive: -0.012 | inactive: 0.104 | inactive: 0.166 | inactive: 0.067 | inactive: -0.211 | inactive: 0.028 | inactive: 0.051 |  | 
APOB (UniProt P04114) | inactive: -0.139 | inactive: -0.17 | inactive: -0.021 | inactive: 0.012 | inactive: 0.05 | inactive: -0.197 | inactive: -0.364 | inactive: 0.04 | inactive: -0.005 | inactive: 0.034 | active: -0.86 | inactive: -0.013 | inactive: -0.039 | inactive: 0 | inactive: -0.384 | inactive: -0.129 | inactive: 0.164 | inactive: -0.352 | inactive: 0.078 | 
ARHGEF12 (UniProt Q9NZN5) | inactive: 0.128 | inactive: -0.291 | inactive: -0.111 | inactive: -0.022 | inactive: 0.11 |  | inactive: 0.024 |  | inactive: -0.227 | inactive: -0.088 | inactive: 0.233 |  | inactive: 0.267 | inactive: 0.14 | inactive: 0.075 |  | inactive: -0.068 | inactive: 0.124 |  | 
ANAPC2 (UniProt Q9UJX6) | inactive: -0.003 | inactive: -0.084 | inactive: 0.009 | inactive: -0.011 | inactive: -0.049 | inactive: 0.027 | inactive: -0.063 | inactive: 0.124 | inactive: 0.006 | inactive: 0.026 | inactive: -0.042 | inactive: 0.012 | inactive: -0.047 | inactive: -0.074 | inactive: -0.038 | inactive: -0.034 | inactive: -0.004 | inactive: 0.059 | inactive: 0.015 | 
APPL1 (UniProt Q9UKG1) | inactive: 0.029 | inactive: -0.004 | inactive: 0.002 | inactive: 0.027 | inactive: 0.037 | inactive: -0.095 | inactive: -0.03 | inactive: 0.03 | inactive: -0.029 | inactive: -0.024 | inactive: 0.069 | inactive: 0.018 | inactive: -0.076 | inactive: -0.001 | inactive: 0.079 | inactive: -0.106 | inactive: -0.023 | inactive: -0.025 | inactive: 0.033 | 
ARFIP1 (UniProt P53367) | inactive: 0.043 | inactive: -0.037 | inactive: 0.047 | active: -0.351 | inactive: -0.08 | inactive: -0.086 | inactive: 0.075 | inactive: -0.01 | inactive: 0.163 | inactive: 0.354 | inactive: -0.049 | inactive: -0.021 | inactive: 0.094 | inactive: 1.31 | inactive: 0.042 | inactive: -0.091 | inactive: -0.005 | inactive: -0.076 | inactive: -0.076 | 
APOH (UniProt P02749) | inactive: 0.097 | inactive: 0.317 | inactive: -0.128 | inactive: -0.032 | inactive: -0.042 | inactive: -0.13 | inactive: -0.391 | inactive: 0.041 | inactive: -0.021 | inactive: 0.03 | inactive: -0.156 | inactive: -0.696 | active: 1.05 | inactive: 0.151 | inactive: -0.059 | inactive: -0.307 | inactive: 0.529 | inactive: -0.197 | inactive: -0.537 | 
ARGLU1 (UniProt Q9NWB6) | inactive: 0.016 | inactive: 0.091 | inactive: 0.003 | inactive: -0.365 | inactive: -0.04 | inactive: -0.026 | inactive: -0.028 | inactive: -0.006 | inactive: 0.077 | inactive: 0.066 | inactive: 0.207 | inactive: 0.025 | inactive: 0.171 | inactive: -0.13 | inactive: 0.05 | inactive: 0.212 | inactive: 0.031 | inactive: 0.062 | inactive: -0.027 | 
AP5M1 (UniProt Q9H0R1) | inactive: 0.237 | inactive: -0.016 |  |  | inactive: -0.346 | inactive: -0.049 | inactive: 0.003 | inactive: 0.196 | inactive: -0.054 | inactive: -0.037 | inactive: 0.004 | inactive: 0.05 |  | inactive: -0.053 | inactive: -0.056 | inactive: -0.003 | inactive: 0.4 | inactive: 0.118 | inactive: -0.022 | inactive: -0.01
AP1S2 (UniProt P56377) | inactive: 0.14 | inactive: -0.023 |  |  |  | inactive: -0.03 | inactive: -0.004 | inactive: -0.031 |  | inactive: -0.018 | inactive: -0.016 | inactive: 0.02 | inactive: 0.223 | inactive: -0.02 | inactive: 0.043 | inactive: 0.005 | inactive: -0.016 | inactive: -0.044 | inactive: 0.035 | inactive: 0.085
ANKRD36 (UniProt A6QL64) | inactive: -0.356 | inactive: 0.05 | inactive: -0.091 |  | inactive: 0.197 | inactive: -0.102 | inactive: 0.082 | inactive: -0.075 | inactive: -0.164 |  | inactive: 0.253 |  |  | inactive: -0.229 |  |  | inactive: -0.004 |  | inactive: 0.235 | 
ANXA5 (UniProt P08758) | inactive: -0.023 | inactive: -0.038 | inactive: -0.006 | inactive: 0.039 | inactive: -0.082 | inactive: -0.001 | inactive: 0.012 | inactive: 0.083 | inactive: -0.062 | inactive: 0.033 | inactive: -0.033 | inactive: 0.049 | inactive: -0.013 | inactive: -0.006 | inactive: 0.009 | inactive: 0.05 | inactive: -0.032 | inactive: 0.015 | inactive: -0.021 | 
ARHGAP21 (UniProt Q5T5U3) | inactive: -0.099 | inactive: 0.117 |  |  |  |  | inactive: 0.06 |  |  |  | inactive: 0.551 | inactive: -0.299 |  | inactive: 0.15 |  | inactive: -0.024 | inactive: -0.027 |  | inactive: 0.067 | inactive: -0.001
AP2M1 (UniProt Q96CW1) | inactive: 0.032 | inactive: 0.008 | inactive: 0.002 | inactive: 0.005 | inactive: 0.016 | inactive: 0.026 | inactive: 0.001 | inactive: 0.008 | inactive: -0.014 | inactive: -0.008 | inactive: 0.048 | inactive: 0.017 | inactive: -0.018 | inactive: -0.06 | inactive: 0.01 | inactive: 0.032 | inactive: 0.01 | inactive: 0.014 | inactive: -0.021 | 
ARFGAP2 (UniProt Q8N6H7) | inactive: 0.037 | inactive: -0.051 | inactive: 0.03 | inactive: 0.025 | inactive: -0.023 | inactive: 0.017 | inactive: 0.017 | inactive: 0.05 | inactive: -0.02 | inactive: -0.067 | inactive: 0.024 | inactive: -0.005 | inactive: -0.029 | inactive: -0.058 | inactive: 0.156 | inactive: -0.004 | inactive: -0.064 | inactive: -0.001 | inactive: 0.013 | 
ARFRP1 (UniProt Q13795) | inactive: 0.108 | inactive: -0.035 | inactive: -0.059 | inactive: 0.037 | inactive: 0.01 | inactive: 0.033 | inactive: 0.031 | inactive: -0.027 | inactive: -0.137 | inactive: 0.127 | active: -0.261 | inactive: 0.02 | inactive: -0.168 | inactive: 0.111 | inactive: 0.039 | inactive: -0.016 | inactive: -0.024 | inactive: 0.071 | inactive: 0.168 | 
AP2A2 isoform 2 (UniProt O94973) | inactive: 0.006 | inactive: -0.028 | inactive: 0.022 | inactive: 0.022 | inactive: -0.006 | inactive: 0.077 | inactive: -0.053 | inactive: -0.002 | inactive: -0.008 | inactive: 0.009 | inactive: 0.064 | inactive: 0.003 | inactive: 0.022 | inactive: -0.095 | inactive: 0.083 | inactive: 0.027 | inactive: 0 | inactive: 0.01 | inactive: -0.002 | 

Single entries from above:
APOB (UniProt P04114) | log2 fold change [1]: inactive: 0.012
ANAPC2 (UniProt Q9UJX6) | log2 fold change [5]: inactive: -0.038
